What was measured:
Assay type in all cases: cell-based
[1] = system: H157 human non-small cell lung carcinoma; assay: MTS cytotoxicity with H157 cells; settings: NCI-H157
Protocol: (§1) For the test procedure, COLO 205 cells were harvested by trypsinization, washed, counted and distributed to wells of 96-well flat-bottom microtiter plates at 1000 cells per well in 100 μl of medium. In addition, one row of wells on an additional plate received cells as above (“time 0” plate). All plates were incubated at 37° in humidified 5% CO2 in air for about 24 hr.
(§2) Compounds were dissolved in DMSO at 10 mg/ml. For each compound, six serial 3-fold dilutions were prepared in medium. The highest drug concentration with cells was 5 μg/ml and the highest DMSO concentration was 0.05%. Drugs were added in duplicate to wells in 100 μl volume. […] The plates were returned to the incubator for three days.
(§3) At the time of drug addition to the experimental plates, the MTS assay was run on the “time 0” plate. This produced the “time 0 MTS value” which was related to the number of viable cells per well at the time of drug addition.
(§4) After three days of culture with test compounds (day 5 overall), the MTS assay was done on all wells of the experimental plates. The results for each plate were calculated separately, using its own controls. The absorbance values of the duplicate sample wells were averaged and divided by the average of the “time 0” values. […]

U87MG human glioblastoma = assay: MTS cytotoxicity with U87MG cells; settings: U-87 MG
Protocol: as §1, §2, §3, §4

[2] = system: DLD1 human colon adenocarcinoma; assay: MTS cytotoxicity with DLD1 cells; settings: DLD-1
Protocol: as §1, §2, §3, §4

[3] = system: KB human epidermoid carcinoma cell line; assay: MTS cytotoxicity with KB cells
Protocol: (§5) For the test procedure, COLO 205 cells were harvested by trypsinization, washed, counted and distributed to wells of 96-well flat-bottom microtiter plates at 1000 cells per well in 100 μl of medium. In addition, one row of wells on an additional plate received cells as above (“time 0” plate). […] Compounds were dissolved in DMSO at 10 mg/ml. For each compound, six serial 3-fold dilutions were prepared in medium. The highest drug concentration with cells was 5 μg/ml and the highest DMSO concentration was 0.05%. Drugs were added in duplicate to wells in 100 μl volume. […] The plates were returned to the incubator for three days. At the time of drug addition to the experimental plates, the MTS assay was run on the “time 0” plate. This produced the “time 0 MTS value” which was related to the number of viable cells per well at the time of drug addition. […] After three days of culture with test compounds (day 5 overall), the MTS assay was done on all wells of the experimental plates. […] The absorbance values of the duplicate sample wells were averaged and divided by the average of the “time 0” values. […] The cytotoxicity standard pharmacological test procedure with MTS detection was applied to representative compounds of the invention with the KB human epidermoid carcinoma cell line and two multidrug resistant lines derived from it. […]

[4] = system: colchicine-resistant KB 8.5; assay: MTS cytotoxicity with KB 8.5 cells (moderate P-glycoprotein); settings: Homo sapiens
Protocol: as §5

[5] = system: mitoxantrone-resistant S1-M1; assay: MTS cytotoxicity with S1-M1 cells (MXR transporter); settings: Homo sapiens
Protocol: as §1, §2, §3
After three days of culture with test compounds (day 5 overall), the MTS assay was done on all wells of the experimental plates. […] The absorbance values of the duplicate sample wells were averaged and divided by the average of the “time 0” values. […] The six values for each compound were plotted against concentration, and the concentration that produced a relative color yield half way between the maximum and minimum was taken as the IC50 value. […]

COc1cc2c(c(OC)c1OC)-c1ccc(OC)c(=O)cc1[C@@H](NC(C)=O)CC2 [Colchicine, reference compound]
IC50 [1]: 13 nM | IC50 (U87MG human glioblastoma): 6.5 nM | IC50 [2]: 25 nM | IC50 [3]: 7.2 nM | IC50 [4]: 51 nM | IC50 [5]: 47 nM

From patent US20020068744A1, “Substituted-triazolopyrimidines as anticancer agents” (American Home Products Corporation, priority 2000, published 2002)
